Data from US20240115726A1, “HYDRAZONE-BASED SAPONIN DERIVATIVES” (priority 2020, published 2024).

Legend:
[1] = system: HeLa cells; assay: Toxicity of saponin alone, cell viability (MTS); type: cell-based
Method: Next, toxicity was determined. […] SO1861-EMCH (blocked): the maleimide functional group is conjugated with mercapto-ethanol.

[2] = system: A431 cells; assay: Toxicity of saponin alone, cell viability (MTS); type: cell-based

Compound: CC(=O)OC1C(C)OC(OC2C(C)OC(OC(=O)[C@]34CCC(C)(C)CC3C3=CCC5[C@@]6(C)CC[C@H](OC7OC(C(=O)O)C(O)C(OC8OCC(O)C(O)C8O)C7OC7OC(CO)C(O)C(O)C7O)CC6[C@@](C)(/C=N/NC(=O)CCOCCOCCOCCOCCN6N=NC7c8ccccc8CN(C(=O)CCC(=O)ON8C(=O)CCC8=O)c8ccccc8C76)C[C@@]5(C)[C@]3(C)C[C@H]4O)C(OC3OC(C)C(OC4OCC(O)C(OC5OC(CO)C(O)C(O)C5O)C4O)C(O)C3O)C2O)C(O)C1OC1OCC(O)C(O)C1O (some centres unmarked)
- Ratio: IC50 toxicity/IC50 activity [1]: >25
- Ratio: IC50 toxicity/IC50 activity [2]: >10
